# Measurements: PMC9239171
# Protein sequences, listed by entry. Tags and fused reporters are not part of them. Lines headed by an entry give the natural chain unless they say otherwise; changes in a name come on top. Chains listed by the source or under a name are the forms on record and can include a tag or linker.
# UniProt O75190: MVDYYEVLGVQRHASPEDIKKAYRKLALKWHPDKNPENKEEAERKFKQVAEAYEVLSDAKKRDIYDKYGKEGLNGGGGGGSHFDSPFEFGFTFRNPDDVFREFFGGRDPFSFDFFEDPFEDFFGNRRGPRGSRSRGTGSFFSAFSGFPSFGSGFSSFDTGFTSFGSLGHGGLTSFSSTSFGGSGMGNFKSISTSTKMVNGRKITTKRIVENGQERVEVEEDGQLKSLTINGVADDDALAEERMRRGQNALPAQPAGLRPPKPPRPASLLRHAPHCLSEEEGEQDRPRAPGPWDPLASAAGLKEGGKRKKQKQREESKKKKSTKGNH
# human DNAJB6(S) (DNAJB6-FLAG, short isoform) (O75190, form named): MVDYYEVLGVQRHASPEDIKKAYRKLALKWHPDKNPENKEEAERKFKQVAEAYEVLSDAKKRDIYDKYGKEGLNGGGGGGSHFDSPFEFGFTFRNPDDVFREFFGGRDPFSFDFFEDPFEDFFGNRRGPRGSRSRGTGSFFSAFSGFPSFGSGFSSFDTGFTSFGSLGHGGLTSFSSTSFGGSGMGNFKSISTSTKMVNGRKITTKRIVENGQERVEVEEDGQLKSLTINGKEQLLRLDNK
# UniProt O95817: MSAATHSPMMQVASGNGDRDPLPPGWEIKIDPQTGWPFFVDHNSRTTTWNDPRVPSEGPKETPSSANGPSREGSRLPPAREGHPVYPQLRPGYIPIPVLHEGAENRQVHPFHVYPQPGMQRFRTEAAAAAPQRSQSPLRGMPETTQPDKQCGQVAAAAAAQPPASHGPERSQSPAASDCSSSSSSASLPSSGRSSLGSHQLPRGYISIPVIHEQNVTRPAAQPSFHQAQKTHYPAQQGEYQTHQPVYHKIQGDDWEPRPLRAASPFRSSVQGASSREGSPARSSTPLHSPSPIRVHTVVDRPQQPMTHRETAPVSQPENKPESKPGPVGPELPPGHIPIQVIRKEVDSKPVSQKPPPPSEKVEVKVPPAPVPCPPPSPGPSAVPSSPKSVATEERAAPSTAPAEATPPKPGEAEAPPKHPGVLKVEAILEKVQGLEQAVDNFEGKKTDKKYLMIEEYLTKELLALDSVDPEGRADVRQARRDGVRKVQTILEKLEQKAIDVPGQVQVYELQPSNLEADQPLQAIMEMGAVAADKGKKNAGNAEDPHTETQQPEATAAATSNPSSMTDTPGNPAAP
# Results are given in words; binding and its absence hold for the method and conditions named. In cells and extracts the contact can be indirect. Some results given as binding are weak or reduced against the parent protein; the word gives no strength.
# How the values were obtained:
# [1] = target: human DNAJB6(S) (DNAJB6-FLAG, short isoform) (human) (UniProt O75190); experiment: co-IP; DNAJB6-FLAG and BAG3-HA constructs transfected singly or together into HEK293 cells; FLAG Immunoprecipitation Kit (Sigma); blots with anti-FLAG and anti-HA; the results call it an in vitro protein pulldown assay
# [2] = target: human DNAJB6(L) (DNAJB6-FLAG, long isoform) (human) (UniProt O75190); experiment: as above
substance,measurement,setting,value
human BAG3 (BAG3-HA) (from UniProt O95817 1-575),binding,[1],binds
same,binding,[2],binds
